At least one structure is not confirmed: it was looked up by name or label, or the drawing left a doubt.
Tests used:
Aβ1-40 = molecular target: T1, Aβ1-40 (Homo sapiens, UniProt P05067); experiment: Mass spectroscopy (MS) binding assay; design: key: “+++” indicates strong binding; “++” indicates moderate binding; “+” indicates weak binding; “−” indicates no detectable binding; conditions: 200 μM test compound, 20 μM solubilized Aβ40, 20% ethanol, pH 7.4
T1 construct: 20 μM of solubilized Aβ40
Description: Test compounds were purchased from commercial sources or synthesized and screened by mass spectroscopy (“MS”) assays. The MS assay gives data on the ability of compounds to bind to an amyloid.
In the mass spectroscopy (“MS”) assay, samples were prepared as aqueous solutions containing 20% ethanol, 200 μM of a test compound and 20 μM of solubilized Aβ40. The pH value of each sample was adjusted to 7.4 (±0.2) by addition of 0.1% aqueous sodium hydroxide. The solutions were then analyzed by electrospray ionization mass spectroscopy using a Waters ZQ 4000 mass spectrometer. Samples were introduced by direct infusion at a flow-rate of […] within 2 hours after sample preparation. The source temperature was kept at 70° C. and the cone voltage was 20 V for all the analysis. Data were processed using Masslynx 3.5 software. The MS assay gives data on the ability of compounds to bind to Aβ, whereas the ThT, EM and CD assays give data on inhibition of fibrillogenesis. “+++” indicates strong binding; “++” indicates moderate binding; “+” indicates weak binding; “−” indicates no detectable binding; and entries left blank were not determined.

Sequences of proteins named here, by UniProt entry; tags and fusion partners are left off. Residues count along the entry.
UniProt P05067, 672-711 limits assumed: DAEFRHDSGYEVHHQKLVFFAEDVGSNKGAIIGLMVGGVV

Aβ-40 and Aβ-42 = conditions: in vitro; cited from earlier work

| SMILES | MS Binding Aβ1-40 (Aβ1-40) | levels of both Aβ-40 and Aβ-42 (Aβ-40 and Aβ-42) |
| --- | --- | --- |
| O=S(=O)(O)CCCN1CCC=C(c2ccccc2)C1 [A, 5-phenyl-1-sulfopropyl-1,2,3,6-tetrahydropyridine] | ++ | – |
| O=S(=O)(O)CCCN1CC=CCC1c1ccccc1 (stereo not shown) [B, 2-phenyl-1-sulfopropyl-1,2,3,6-tetrahydropyridine] | + | – |
| O=S(=O)([O-])CCC[n+]1ccc(CCCc2ccccc2)cc1 [C, 4-(3-phenylpropyl)-1-sulfopropylpyridine] | + | – |
| CCC(C)(C)C(=O)O[C@H]1C[C@@H](C)C=C2C=C[C@H](C)[C@H](CC[C@@H]3C[C@@H](O)CC(=O)O3)[C@H]21 [simvastatin] | – | decreases |
